Test results taken from article PMC4860851 (Cell Discovery, 2015).
Results are given in words; binding and its absence hold for the method and conditions named. Some binding calls cover weakened binding; strength is not graded here.

Sequences of proteins named here, by UniProt entry; tags and fusion partners are left off. Residues count along the entry.
UniProt P03452, residues 18-565: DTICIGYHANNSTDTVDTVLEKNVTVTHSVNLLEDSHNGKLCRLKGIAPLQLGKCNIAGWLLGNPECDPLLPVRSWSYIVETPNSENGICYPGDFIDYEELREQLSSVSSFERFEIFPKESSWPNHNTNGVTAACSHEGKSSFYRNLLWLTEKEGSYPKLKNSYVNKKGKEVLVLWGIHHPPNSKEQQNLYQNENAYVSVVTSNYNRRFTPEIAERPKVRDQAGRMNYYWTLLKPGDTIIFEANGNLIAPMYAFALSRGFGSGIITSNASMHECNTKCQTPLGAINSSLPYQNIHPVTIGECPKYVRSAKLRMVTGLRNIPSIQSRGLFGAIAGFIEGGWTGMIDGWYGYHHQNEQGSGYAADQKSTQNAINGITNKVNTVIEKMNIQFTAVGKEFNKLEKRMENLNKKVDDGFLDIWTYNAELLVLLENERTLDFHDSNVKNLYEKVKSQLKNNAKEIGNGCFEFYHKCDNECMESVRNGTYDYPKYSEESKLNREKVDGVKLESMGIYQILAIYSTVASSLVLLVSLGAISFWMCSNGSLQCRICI
UniProt Q8C567, residues 17-255: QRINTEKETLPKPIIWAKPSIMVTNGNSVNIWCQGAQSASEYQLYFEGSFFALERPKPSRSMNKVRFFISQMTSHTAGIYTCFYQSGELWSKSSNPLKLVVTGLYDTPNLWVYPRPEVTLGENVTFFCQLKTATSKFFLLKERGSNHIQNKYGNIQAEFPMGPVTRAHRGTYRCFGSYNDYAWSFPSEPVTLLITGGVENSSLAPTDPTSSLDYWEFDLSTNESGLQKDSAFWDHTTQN

Target: HA of human influenza virus A/Puerto Rico/8/34 H1N1 (PR8), on the virus and on PR8-treated EL4 cells (influenza A/Puerto Rico/8/34 H1N1 (PR8)) (UniProt P03452)
Test: flow cytometry on cells; only the binder purified

Substance: Ncr1 Ig fusion protein (extracellular part of mouse Ncr1 fused to human IgG1) (from UniProt Q8C567 17-255) (Fc fusion)
- binding: binds

Substance: Ncr1 Ig grown in medium containing tunicamycin (from UniProt Q8C567 17-255) (Fc fusion)
- binding: binds
